Reference: patent US9962341B2, “Active pharmaceutical ingredient (API) comprising cannabinoids for use in the treatment of cancer” (GW Pharma Limited, priority 2014, dated 2018)

Test system: MDA-MB-231
Experiment: Cell viability (CellTiter-Blue, 72 h), MDA-MB-231 breast cancer cells
Assay type: cell-based
Conditions: MDA-MB-231, 1% FBS
Procedure: The cell lines tested in this Example were as follows. Breast cancer: MDA-MB-231; SK-BR3; and BT474. Liver cancer: HepG2.
The phytocannabinoids were tested alone and in various ratioed combinations in media containing final concentrations of 10% and 1% foetal bovine serum at 72 h for the breast and prostate cancer lines and 1% foetal bovine serum for the liver cancer line HepG2.
Each tumour cell line was maintained in vitro in RPMI 1640+10% heat inactivated FBS and 2 mM L-glutamine (growth media) at 37° C. in 5% CO2 and humidified conditions. The cells were harvested, washed, re-suspended into growth medium and counted. The cells were re-suspended into assay media (RPMI 1640+5% heat inactivated FBS+ and 2 mM L-glutamine) at 8×104-2×10^5 cells/ml (dependent upon cell type) and plated into the middle 240 wells of 384 well tissue culture plates (Corning CellBind, black-wall plates) 12.5 μl/well aliquots; 62.5 μl of growth media was aliquoted into the outer wells. There were 4 plates for each cell line. The plates were incubated overnight at 37° C., in 5% humidified CO2.
The phytocannabinoid test compounds were prepared in 100% DMSO vehicle at a stock concentration of 10 mM.
Starting with the 10 mM stock, the compounds were diluted to 125 μM in FBS-free growth media.
These were diluted in FBS-free growth media to 125 μM before serial dilution.
5 volumes of CBD 10 mM stock was added to 1 volume of the other agent (also at 10 mM) and 4 volumes of DMSO. This made a final concentration of 5 mM:1 mM. This was then diluted in FBS-free growth media so the top concentration of CBD would be 125 μM (before serial dilution). Each compound and compound combination stock was serially diluted in FBS-free growth media (containing 1.25% v/v DMSO) from 125 μM to 41.7, 13.89, 4.63, 1.54, 0.514, 0.171, 0.057 and 0.019 μM (1.25× final assay concentrations). Vehicle was prepared at equivalent dilutions in assay media. The top final concentration of compound in the assay was always 100 μM so CBD5:1CBG was 100 μM CBD and 20 μM CBG.
Taxotere SOC was prepared at a stock concentration of 1 mM in 100% DMSO. Taxotere was serially diluted from the stock solution into FBS-free growth media to 12.5 μM, then serially diluted in FBS-free growth media containing 1.25% DMSO to 4.17, 1.39, 0.46, 0.154, 0.051, 0.017, 0.006, 0.002 μM (1.25× final assay concentrations).
The plates were incubated for 72 h at 37° C. in 5% humidified CO2. To develop the plates, at 72 h, 10 μl of CellTiter-Blue™ reagent was added to each test/blank well. The plates were incubated at 37° C., 5% humidified CO2. Fluorescence was measured using a Flex II Station plate reader (570 nm excitation wavelength, 600 nm emission wavelength, 590 nm cut-off) after 3 h. […]
The raw data values expressed in relative fluorescent units were normalised to the vehicle for each individual plate and any reduction in fluorescence indicated a decrease in viability.
The data were analysed in GraphPad PRISM using a non-linear sigmoidal plot with variable slope (asymmetric five point linear regression) and where possible an IC50 value for each single compound and combination was generated. […]
The data was formatted in Excel for each assay plate so that the average effect at each concentration for each separate phytocannabinoid and each of the combinations could be determined. […]

SMILES | m (shape parameter of dose effect curve)
C=C(C)[C@@H]1CCC(C)=C[C@H]1c1c(O)cc(CCCCC)cc1O [CBD, Cannabidiol] | 0.78
C=C(C)[C@@H]1CCC(C)=C[C@H]1c1c(O)cc(CCCCC)c(C(=O)O)c1O [CBDA, Cannabidiolic acid] | 0.86
CCCCCc1cc(O)c(C/C=C(\C)CCC=C(C)C)c(O)c1 [CBG, Cannabigerol] | 2.11
CCCCCc1cc(O)c(C/C=C(\C)CCC=C(C)C)c(O)c1C(=O)O [CBGA, Cannabigerolic acid] | 2.10
CCCc1cc(O)c2c(c1)OC(C)(C)[C@@H]1CCC(C)=C[C@@H]21 [THCV, Tetrahydrocannabivarin] | 2.21
